The other results are listed elsewhere or left out.
Legend:
Test in all cases: glycan array binding signal (z-score within array); higher = stronger binding
Conditions in all cases: glycan notation: IUPAC condensed, linker removed
[1] = biological target: Gal(b1-3)GlcNAc(b1-6)GalNAc
Summary of the method: (§1)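 Arrays were curated from the Consortium for Functional Glycomics database, 3228 in total, and kept only where the protein sequence was available. Binding is expressed as a within-array Z-score. This score was averaged across arrays of the same protein sequence at different concentrations or buffers and across linkers, and negative values can be read as non-binding.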

[2] = biological target: Gal(b1-3)GlcNAc(b1-6)[Gal(b1-3)]GalNAc
Summary of the method: as §1

[3] = biological target: Gal(b1-3)GlcNAc6S
Summary of the method: as §1

[4] = biological target: Gal(b1-3)[Fuc(a1-4)]GlcNAc
Summary of the method: as §1

[5] = biological target: Gal(b1-3)[Fuc(a1-4)]GlcNAc(b1-2)Man
Summary of the method: as §1

[6] = biological target: Gal(b1-3)[Fuc(a1-4)]GlcNAc(b1-2)Man(a1-3)[Gal(b1-3)[Fuc(a1-4)]GlcNAc(b1-2)Man(a1-6)]Man(b1-4)GlcNAc(b1-4)[Fuc(a1-6)]GlcNAc
Summary of the method: as §1

[7] = biological target: Gal(b1-3)[Fuc(a1-4)]GlcNAc(b1-3)Gal(b1-3)[Fuc(a1-4)]GlcNAc
Summary of the method: as §1

[8] = biological target: Gal(b1-3)[Fuc(a1-4)]GlcNAc(b1-3)Gal(b1-4)[Fuc(a1-3)]GlcNAc
Summary of the method: as §1

[9] = biological target: Gal(b1-3)[Fuc(a1-4)]GlcNAc(b1-6)GalNAc
Summary of the method: as §1

[10] = biological target: Gal(b1-3)[GlcNAc(b1-6)]GalNAc
Summary of the method: as §1

[11] = biological target: Gal(b1-3)[Neu5Ac(a2-6)]GalNAc
Summary of the method: as §1

[12] = biological target: Gal(b1-3)[Neu5Ac(a2-6)]GlcNAc(b1-4)Gal(b1-4)Glc
Summary of the method: as §1

[13] = biological target: Gal(b1-3)[Neu5Ac(b2-6)]GalNAc
Summary of the method: as §1

[14] = biological target: Gal(b1-4)Gal
Summary of the method: as §1

[15] = biological target: Gal(b1-4)GalNAc(a1-3)[Fuc(a1-2)]Gal(b1-4)GlcNAc
Summary of the method: as §1

[16] = biological target: Gal(b1-4)GalNAc(b1-3)[Fuc(a1-2)]Gal(b1-4)GlcNAc
Summary of the method: as §1

[17] = biological target: Gal(b1-4)Glc
Summary of the method: as §1

[18] = biological target: Gal(b1-4)Glc6S
Summary of the method: as §1

[19] = biological target: Gal(b1-4)GlcNAc
Summary of the method: as §1

[20] = biological target: Gal(b1-4)GlcNAc(a1-6)Gal(b1-4)GlcNAc
Summary of the method: as §1

[21] = biological target: Gal(b1-4)GlcNAc(b1-2)Man
Summary of the method: as §1

[22] = biological target: Gal(b1-4)GlcNAc(b1-2)Man(a1-3)Man(b1-4)GlcNAc(b1-4)GlcNAc
Summary of the method: as §1

B1: XTP3-B-MRH1 (Homo sapiens), Q96DZ1 (protein)
chain: LLEPLFKQSSCSYRIESYWTYEVCHGKHIRQYHEEKETGQKINIHEYYLGNMLAKNLLFEKEREAEEKEKSNEIPTKNIEGQMTPYYPVGMGNGTPCSLKQNRPRSSTVMYICHPESKHEILSVAEVTTCEYEVVILTPLLCSHPKYRFRA
glycan array binding signal (z-score) [1]: 0.17 | glycan array binding signal (z-score) [2]: -1.18 | glycan array binding signal (z-score) [3]: -0.515 | glycan array binding signal (z-score) [4]: 0.453 | glycan array binding signal (z-score) [5]: 0.501 | glycan array binding signal (z-score) [6]: -0.731 | glycan array binding signal (z-score) [7]: 1.9 | glycan array binding signal (z-score) [8]: -0.545 | glycan array binding signal (z-score) [9]: -0.931 | glycan array binding signal (z-score) [10]: -0.389 | glycan array binding signal (z-score) [11]: 0.528 | glycan array binding signal (z-score) [12]: 0.147 | glycan array binding signal (z-score) [13]: -0.816 | glycan array binding signal (z-score) [14]: -1.33 | glycan array binding signal (z-score) [15]: -0.41 | glycan array binding signal (z-score) [16]: 0.91 | glycan array binding signal (z-score) [17]: -0.045 | glycan array binding signal (z-score) [18]: -1.17 | glycan array binding signal (z-score) [19]: -0.514 | glycan array binding signal (z-score) [20]: -0.583 | glycan array binding signal (z-score) [21]: 0.567 | glycan array binding signal (z-score) [22]: -0.159

From the supplement of paper PMC8728848
